Source: PubChem BioAssay AID1259405 (NCATS, 2018)
The whole screen tested about 50,000 reagents; shown is an unselected part. In the full data, about 4,000 (8%) got an active call. 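Mouse siRNA library applied to hamster cells; one well for each siRNA.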 The numbers tell different reagents against one gene apart. Reagent sequences are not shown.

- Assay: 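Silenced genes that increase secreted GFP made by CHO cells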 (primary screen)
- System: Chinese hamster CHO-K1 ovary cells with stable secreted eGFP expression
- Reagents: single siRNA against mouse genes, 0.8 pmol siRNA per well (2 µl of 400 nM stock)
- Time to read-out: 3 days
- Read-out: 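Percent of the per-plate non-targeting control median for intracellular GFP per well by laser scanning cytometry and for cell viability by ATP luminescence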
- Scale: GFP, % of control: higher = more GFP per well, higher productivity; viability (ATP), % of control: higher = more viable cells (more ATP)
- Call rule: 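Called active when intracellular GFP, relative to negative control, is at or above 120%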

For Dmbt1 #1, what does the deposit list?
GFP, % of control: 69; viability (ATP), % of control: 54.6; call: inactive

For Dmbt1 #2, what does the deposit list?
GFP, % of control: 84.2; viability (ATP), % of control: 88.7; call: inactive

For Dmbt1 #3, what does the deposit list?
GFP, % of control: 116; viability (ATP), % of control: 103; call: inactive

With Bcor #1, what does the deposit list?
GFP, % of control: 29.4; viability (ATP), % of control: 52.3; call: inactive

What did the screen give for Bcor #2?
GFP, % of control: 36.6; viability (ATP), % of control: 65.2; call: inactive

With Bcor #3, what does the deposit list?
GFP, % of control: 121; viability (ATP), % of control: 139; call: active

With Or10a5 #1, what does the deposit list?
GFP, % of control: 65.3; viability (ATP), % of control: 64.4; call: inactive

With Or10a5 #2, how do the results read?
GFP, % of control: 77.6; viability (ATP), % of control: 92.6; call: inactive

With Or10a5 #3, what does the deposit list?
GFP, % of control: 89; viability (ATP), % of control: 69.3; call: inactive

What did the screen give for Ndufs5 #1?
GFP, % of control: 50.7; viability (ATP), % of control: 133; call: inactive

For Ndufs5 #2, what does the deposit list?
GFP, % of control: 91.1; viability (ATP), % of control: 80.9; call: inactive

Which result is listed for Casp14 #1?
GFP, % of control: 96.4; viability (ATP), % of control: 89.2; call: inactive

What is on record for Casp14 #2?
GFP, % of control: 51.4; viability (ATP), % of control: 59.2; call: inactive

How did the screen score Casp14 #3?
GFP, % of control: 60.9; viability (ATP), % of control: 59.1; call: inactive

Entries listed so far whose gene name begins with N or n (2):
Ndufs5 #1 — GFP, % of control: 50.7; viability (ATP), % of control: 133; call: inactive
Ndufs5 #2 — GFP, % of control: 91.1; viability (ATP), % of control: 80.9; call: inactive

Next results:
With F5 #1, what does the deposit list?
GFP, % of control: 81.7; viability (ATP), % of control: 61.3; call: inactive

For F5 #2, what was measured?
GFP, % of control: 88.6; viability (ATP), % of control: 73.9; call: inactive

Which result is listed for Washc1 #1?
GFP, % of control: 77; viability (ATP), % of control: 74.4; call: inactive

What did the screen give for Washc1 #2?
GFP, % of control: 19.6; viability (ATP), % of control: 23.7; call: inactive

With Washc1 #3, what was measured?
GFP, % of control: 93.6; viability (ATP), % of control: 103; call: inactive

What did the screen give for Ppt2 #1?
GFP, % of control: 89.1; viability (ATP), % of control: 80.1; call: inactive

Which result is listed for Ppt2 #2?
GFP, % of control: 54.1; viability (ATP), % of control: 75.7; call: inactive

With Ppt2 #3, what was measured?
GFP, % of control: 49.8; viability (ATP), % of control: 50.3; call: inactive

With Kank1 #1, how do the results read?
GFP, % of control: 63.8; viability (ATP), % of control: 74.8; call: inactive

Which result is listed for Kank1 #2?
GFP, % of control: 88.3; viability (ATP), % of control: 75.4; call: inactive

With Kank1 #3, what was measured?
GFP, % of control: 55.6; viability (ATP), % of control: 32.5; call: inactive

For Borcs5 #1, how do the results read?
GFP, % of control: 57.4; viability (ATP), % of control: 76; call: inactive

What did the screen give for Borcs5 #2?
GFP, % of control: 82.4; viability (ATP), % of control: 73.3; call: inactive

What is on record for Borcs5 #3?
GFP, % of control: 106; viability (ATP), % of control: 78.3; call: inactive

What did the screen give for Fam133b #1?
GFP, % of control: 82.9; viability (ATP), % of control: 67; call: inactive

With Fam133b #2, how do the results read?
GFP, % of control: 94.2; viability (ATP), % of control: 88.9; call: inactive

For Fam133b #3, what was measured?
GFP, % of control: 95.7; viability (ATP), % of control: 134; call: inactive

What is on record for Or5b94 #1?
GFP, % of control: 96.3; viability (ATP), % of control: 50.5; call: inactive

For Or5b94 #2, what was measured?
GFP, % of control: 82.3; viability (ATP), % of control: 43.4; call: inactive

For Or5b94 #3, how do the results read?
GFP, % of control: 61.8; viability (ATP), % of control: 56.3; call: inactive

With Zfp40 #1, how do the results read?
GFP, % of control: 52.7; viability (ATP), % of control: 62.9; call: inactive

For Zfp40 #2, what was measured?
GFP, % of control: 73.4; viability (ATP), % of control: 87.4; call: inactive

What is on record for Zfp40 #3?
GFP, % of control: 71.8; viability (ATP), % of control: 77.9; call: inactive

With Hlx #1, what does the deposit list?
GFP, % of control: 104; viability (ATP), % of control: 100; call: inactive

For Hlx #2, what was measured?
GFP, % of control: 113; viability (ATP), % of control: 88.1; call: inactive

What is on record for Hlx #3?
GFP, % of control: 40.3; viability (ATP), % of control: 35.9; call: inactive
